# Experimental data: PubChem BioAssay AID1259415 (National Center for Advancing Translational Sciences (NCATS), 2018)
# In all, about 410,000 compounds went through this assay and about 18,000 (4.4%) were called active. Inconclusive means that the source gave no clear call. Such entries were picked first, then a sample of the others. Rule as the data show it: active = activity change below about -60%; inconclusive = no clear call, values can overlap the other calls; inactive = above about -39%.
# Test: qHTS Assay for inhibitors of the human cytomegalovirus (HCMV)
# Conditions: HFF cells, HCMV-luciferase reporter, 72 h; at 57.5 µM; hits give low values
# Method in brief: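 Two-dose cell screen: HFF monolayers treated with compounds and infected with luciferase-expressing HCMV at 1 PFU/cell, 72 h at 37C, then lysed for luciferase measurement.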
# % is scaled to controls: 0 for no effect and ±100 for the full control effect.
row,Compound,"activity change, negative = inhibition"
1,CCc1ccc(-n2c(=O)c3sc4ccccc4c3n(CC(=O)N3CCCC3)c2=O)cc1,inactive: -8.39%
2,O=c1c(Cl)c(Cl)cnn1-c1ccccc1,active: -100%
3,O=C(COC(=O)c1nn(-c2ccccc2C(F)(F)F)cc1O)c1ccc(OC(F)F)cc1,inactive: 10.2%
4,Cc1ccc(-c2nc(CS(=O)CC(=O)N3CCN(c4cccc(Cl)c4)CC3)c(C)o2)cc1 (stereo not given),inconclusive: -42.1%
5,Cc1cccc(N2CCN(C(=O)C3CCC(=O)N(Cc4ccccc4F)C3)CC2)c1C (stereo not given),inconclusive: -43.4%
6,CCCOc1cccc(C2c3c(oc4ccccc4c3=O)C(=O)N2c2nncs2)c1 (stereo not given),inactive: -16.3%
7,CN(C(=O)Oc1ccc([N+](=O)[O-])cc1)c1ccccc1,inconclusive: -49.3%
8,Cc1ccc(C)c(Cn2c(CCCNC(=O)C3CCCCC3)nc3ccccc32)c1,inconclusive: -50%
9,COc1ccc(OC)c(S(=O)(=O)Nc2c(C)n(C)n(-c3ccccc3)c2=O)c1,inactive: 10.3%
10,CCOc1ccc2[nH]c(=O)c(CN(CCO)C3(c4nnnn4C4CCCCC4)CCCCC3)cc2c1,active: -60.6%
11,Cc1ccc2nc(SCC(=O)Nc3ccc(F)cc3F)[nH]c2c1,inconclusive: -47.2%
12,COc1ccc(CN2CCc3c(c(=O)n4ncc(C(=O)N5CCN(c6ccc(F)cc6)CC5)c4n3C)C2)cc1,inconclusive: -50.8%
13,COc1cc(-c2c(-c3cc(OC)c(OC)c(OC)c3)noc2C)ccc1F,active: -94.3%
14,COc1cc(Nc2cc3[nH]c(-c4ccccn4)cc3cn2)cc(C(F)(F)F)c1,inconclusive: -44.6%
15,CCOC(=O)CSc1nc2sc3c(c2c(=O)n1-c1ccccc1)CC(C(C)C)OC3 (stereo not given),inactive: 12.8%
16,O=C(c1ccccc1)c1nccn1-c1ccc(Cl)nn1,inconclusive: -41.4%
17,O=c1cc(C(F)(F)F)[nH]c2c(OC(F)(F)F)cccc12,active: -94.9%
18,O=C(CNS(=O)(=O)c1c(Cl)cccc1Cl)OCC(=O)c1ccc[nH]1,inconclusive: 0%
19,Cc1ccc(-c2nnn3c2nc(NCC(C)c2ccccc2)c2ccccc23)cc1 (stereo not given),inconclusive: -48.2%
20,C/C=C(\C)C(=O)NCCN1C2=NC[C@H](Cc3ccccc3)N2C[C@@H]1Cc1ccc(OC)cc1,inactive: 10.4%
21,CN(C(=O)COC(=O)c1c[nH]c2ccccc12)c1ccccc1,inconclusive: -54.2%
22,COc1ccccc1N1C(N)=NC(N)=NC12CCCCC2,inconclusive: -46.1%
23,CCC(C)(C)NC(=O)C(c1ccc(F)cc1)N(Cc1ccccc1)C(=O)c1cnccn1 (stereo not given),inconclusive: -47.5%
24,Cc1nnc(N2C(=O)c3cccc4c([N+](=O)[O-])ccc(c34)C2=O)s1,inconclusive: -49.6%
25,CC(=O)Nc1ccc(NC2=C(Cl)C(=O)c3ccccc3C2=O)cc1,active: -101%
26,COc1ccc(COC(=O)Nc2c(SC)nsc2SC)cc1,inconclusive: -45.5%
27,Cc1cc(F)c(F)c(C(=O)N2C(C)CCCC2C)c1Cl (stereo not given),inconclusive: -48.5%
28,CC1CCN(c2ccc(C(=O)Nc3nnc(C4CC4)s3)cc2[N+](=O)[O-])CC1,inconclusive: -40.3%

row,Compound,"activity change, negative = inhibition"
1,CCCOc1ccc(C(=O)Nc2ccc(NC(=O)c3ccccc3)c(Br)c2)cc1,inactive: 9.3%
2,O=S(=O)(c1cccs1)N1CCN(c2ccnc3cc(Cl)ccc23)CC1,active: -60.3%
3,O=C1CN(C(=O)c2cc3ccccc3oc2=O)C(c2ccc(F)cc2)c2cc(F)ccc2N1 (stereo not given),inconclusive: -59%
4,Cc1cc(-c2ccc(S(=O)(=O)Nc3ccccc3F)s2)on1,inactive: 0%
5,C=C(C)COc1ccc2c(C)c(C)c(=O)oc2c1OCC(=C)C,inconclusive: -59.2%
6,Cc1ccc(NP(=O)(c2ccc(N(C)C)cc2NC(=O)c2cccs2)N2CCOCC2)cc1Cl (stereo not given),inconclusive: -45.3%
7,Cc1cnc(NC(=O)C2(c3ccccc3)CC2)s1,inconclusive: -43.6%
8,C[C@@H](N)C(=O)N[C@H]1CCC2C3CC=C4C[C@@H](O)CC[C@]4(C)C3CC[C@@]21C (stereo not given in full),inconclusive: -42.2%
9,COc1ccccc1C(CC(=O)Nc1ccc(C)c(C)c1)c1ccc(OC(C)C)cc1 (stereo not given),active: -60.7%
10,COc1cc(NC(=O)CSc2nc(-c3ccco3)cc(C(F)(F)F)n2)cc(OC)c1OC,inconclusive: -52.7%
11,COc1cc(C2CC(c3cccnc3)=NN2c2ccc(F)cc2)cc(OC)c1OC (stereo not given),inactive: 149%
12,COc1ccc(-c2noc(-c3ccc(N4CCN(c5ccccc5)CC4)c([N+](=O)[O-])c3)n2)cc1,inactive: 7.03%
13,COc1ccc(OC)c(Nc2nc(NCCC(C)C)nc(N)c2[N+](=O)[O-])c1,inconclusive: -52%
14,CC(CNC(=O)CN1C(=O)c2cccnc2Oc2ccc(Cl)cc21)c1ccccc1 (stereo not given),inconclusive: 0%
15,CC1CC(C)CN(CCOc2ccc(Br)cc2)C1 (stereo not given),inactive: -6.78%
16,Cc1cccc(C(=O)C(O)(c2ccccc2)C2CCCCC2=O)c1 (stereo not given),inconclusive: -42.5%
17,CCOc1ccc(NC(=O)CN2C(=O)C(C)SC(C)C2=O)cc1 (stereo not given),active: -64.6%
18,COc1ccc(N2CCN(C(=O)CN(C3CCCCC3)S(C)(=O)=O)CC2)cc1,inconclusive: -46.7%
19,Cc1ccc(CNC(=O)C2CSC3(C)CCC(=O)N23)cc1 (stereo not given),inconclusive: -54%
20,CCN(c1ccccc1)S(=O)(=O)c1ccc(Cl)c(NC(=O)Nc2ccc(Cl)cc2C#N)c1,inconclusive: -47.2%
21,O=C(NC(=S)NC1CCCCCC1)c1cncc(Br)c1,inactive: 55.8%
22,COc1cccc(OC)c1C(=O)OCC(=O)NC1CCCCCC1,inconclusive: -46.1%
23,CN(C)/C=C/C(=O)c1ccc(F)cc1,inactive: 42.5%
24,O=c1[nH]c(=O)n(C2CCCCC2)c(O)c1C1=Nc2ccccc2SC(c2ccc(Cl)cc2)C1 (stereo not given),inactive: -5.98%
25,O=C(c1ccc(S(=O)(=O)NCc2ccco2)cc1)N1CCN(Cc2ccccc2F)CC1,inconclusive: -57.7%
26,O=C(NCc1cccs1)c1ccccc1C(=O)NCc1cccs1,inactive: 3.62%
27,O=Nc1c(-c2ccccc2)cc2ccccn12,inconclusive: -43.4%

# Looked up by compound from the list above, 4 records:
row,Compound,"activity change, negative = inhibition"
24,O=c1[nH]c(=O)n(C2CCCCC2)c(O)c1C1=Nc2ccccc2SC(c2ccc(Cl)cc2)C1 (stereo not given),inactive: -5.98%
13,COc1ccc(OC)c(Nc2nc(NCCC(C)C)nc(N)c2[N+](=O)[O-])c1,inconclusive: -52%
7,Cc1cnc(NC(=O)C2(c3ccccc3)CC2)s1,inconclusive: -43.6%
26,O=C(NCc1cccs1)c1ccccc1C(=O)NCc1cccs1,inactive: 3.62%
